Record: PubChem BioAssay AID686943 (Drosophila RNAi Screening Center, 2013)
The deposit covers about 23,000 reagents; shown is a random part of those with a known target gene and a result. 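Extra replicates exist only for a retested subset of genes; insulin dose and duration not given; both raised and lowered dpERK matter.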 A plus sign joins genes that one reagent is predicted to hit. The record does not give: the amount of reagent, the time to read-out.

Aim: 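Fly genes whose loss alters ERK activation after insulin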 (primary screen)
Cells: Drosophila S2R+ haemocyte-like cells expressing YFP-tagged ERK (Rolled)
Reagent: long dsRNA against Drosophila genes
Challenge: insulin stimulation versus unstimulated cells; dose and duration not given
Measured: 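Per-plate z-scores of phospho-ERK immunostaining normalised to YFP-tagged ERK, measured with and without insulin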
Reading the numbers: replicate 1, z-score of dpERK with insulin and replicate 2, z-score of dpERK with insulin: higher = more active ERK per ERK-YFP after insulin; replicate 1, z-score of dpERK under basal conditions: higher = more basal active ERK per ERK-YFP; replicate 1, z-score of ERK-YFP with insulin: higher = more YFP-tagged ERK signal

| replicate 1, z-score of dpERK with insulin | replicate 2, z-score of dpERK with insulin | replicate 1, z-score of dpERK under basal conditions | replicate 1, z-score of ERK-YFP with insulin | predicted target | dsRNA |
| --- | --- | --- | --- | --- | --- |
| -0.18 | 0.99 | 0.4 | 0.66 | CG11353 (GeneID 38560) | DRSC08182 |
| 1.11 | 0.24 | -0.77 | 0.15 | CG18480 (GeneID 34920) | DRSC01957 |
| -0.94 | 0.27 | -0.69 | 0.22 | CG5612 (GeneID 43316) | DRSC15844 |
| 1.03 | 0.62 | -0.04 | -0.51 | AstA-R1 (GeneID 44126) | DRSC17278 |
| 0.37 | -0.21 | 0.54 | -0.29 | AstA-R1 (GeneID 44126) | DRSC17727 |
| 0.67 | -0.25 | -0.88 | -0.42 | Nup37 (GeneID 43040) | DRSC14419 |
| -0.45 | 0.08 | -0.31 | -0.07 | lt (GeneID 3355130) | DRSC03759 |
| -0.02 | -0.15 | -0.89 | 1 | Spn28Db (GeneID 326261) | DRSC22033 |
| 0.38 | -0.34 | -0.29 | -0.05 | mei-41 (GeneID 32608) | DRSC20350 |
| 0.12 | 0.21 | -0.18 | -0.26 | CG16700 (GeneID 32694) | DRSC19755 |
| 0.69 | 0.19 | 0.48 | -1.55 | CG11200 (GeneID 37301) | DRSC06060 |
| -0.84 | 4.92 | -0.69 | 0.79 | Acsx1L (GeneID 42351) | DRSC16014 |
| -0.49 | -0.35 | 0.19 | -0.1 | Qsox2 (GeneID 42583) | DRSC15287 |
| 0.61 | 3.93 | -0.74 | -4.12 | Prp8 (GeneID 36304) | DRSC07293 |
| -0.37 | 0.55 | -0.01 | -0.56 | Cpr50Ca (GeneID 36523) | DRSC05454 |
| 1.18 | 0.71 | -0.9 | -0.27 | Cpr50Ca (GeneID 36523) | DRSC06372 |
| 0.39 | 0.08 | -0.01 | 0.19 | Cpr50Ca (GeneID 36523) | DRSC06375 |
| 0.2 | -0.58 | -0.25 | 0.29 | NfI (GeneID 43782) | DRSC17158 |
| 0.29 | -0.23 | -0.12 | -0.07 | Fntb (GeneID 41989) | DRSC15244 |
| 0.33 | 0.03 | -0.18 | 0.05 | T48 (GeneID 43235) | DRSC16878 |
| -2.34 | 0.48 | -1.74 | 1.75 | CG31688 (GeneID 35314) | DRSC02117 |
| -0.13 | -1.33 | -1.34 | -0.25 | CG31688 (GeneID 35314) | DRSC02682 |
| 0.75 | 0.21 | 0.69 | 0.04 | Kr (GeneID 38012) | DRSC04622 |
| -0.24 | -0.75 | 0.37 | -0.09 | CG33655 (GeneID 8674081) | DRSC03858 |
| -5.83 | -6.57 | 0.63 | 0.4 | pAbp (GeneID 37070) | DRSC07659 |
| -0.2 | 0.75 | -0.43 | 0.7 | CG30271 (GeneID 246518) | DRSC04170 |
| -1.05 | 0.72 | -0.03 | 0.19 | Pi3K92E (GeneID 42446) | DRSC16788 |
| -0.16 | 0.22 | 0.19 | 0.51 | betaNACtes6 (GeneID 318107) | DRSC22925 |
| 1.02 | 0.36 | 0.29 | 0.35 | CG42326 (GeneID 35838) | DRSC06483 |
| -1.43 | -0.29 | -0.57 | 1.29 | CG42326 (GeneID 35838) | DRSC06484 |
| 1.42 | -0.68 | 1.13 | 0.05 | Ate1 (GeneID 37288) | DRSC05925 |
| 0.78 | -0.55 | -0.43 | 0.36 | Ets97D (GeneID 43236) | DRSC16665 |
| -0.05 | 0.11 | -0.57 | 0.17 | trem (GeneID 42392) | DRSC15575 |
| 0.59 | -0.11 | 0.77 | 0.37 | CG13045 (GeneID 39792) | DRSC09926 |
| 0.72 | -0.3 | 0.37 | 0.03 | sosie (GeneID 42961) | DRSC14636 |
| -0.31 | 0.43 | -0.84 | -2.09 | sosie (GeneID 42961) | DRSC21382 |
| -0.95 | -1.69 | -0.2 | -0.14 | mri (GeneID 38028) | DRSC08259 |
| 0.17 | 0.54 | -0.38 | -0.23 | CG7849 (GeneID 35537) | DRSC04895 |
| 0.37 | 0 | 1.3 | 0.75 | Hmgcl (GeneID 33978) | DRSC02051 |
| 0.32 | 0.8 | 0.27 | 0.03 | CG31683 + CG18858 | DRSC02703 |
| 0.37 | -0.17 | 0.04 | 0.68 | Baldspot (GeneID 39860) | DRSC09671 |
| 1.38 | -0.67 | 3.11 | -1.03 | Mst27D (GeneID 319019) | DRSC00967 |
| 0.64 | 0.22 | -0.91 | 0 | CG8281 (GeneID 38880) | DRSC10976 |
| 0.55 | 0.98 | 0.65 | 0.21 | bi (GeneID 31379) | DRSC18742 |
| 0.46 | 0.12 | -0.76 | 0.15 | CG6304 (GeneID 35032) | DRSC02948 |
| -0.55 | 0 | -0.93 | -0.07 | CG11843 (GeneID 43432) | DRSC14401 |
| -0.87 | -1.22 | -1.76 | 2.05 | CG14464 (GeneID 3355132) | DRSC07760 |
| 0.39 | -1.32 | -0.5 | 0.08 | Cyp304a1 (GeneID 41586) | DRSC16623 |
| 0.02 | -0.61 | 0.93 | 0.98 | Nup93-2 (GeneID 41804) | DRSC16221 |
| -0.64 | -0.09 | -1.13 | 0.15 | CR42532 (GeneID 8674101) | DRSC06713 |
| 0.16 | 0.05 | -0.14 | 0.53 | Abd-B (GeneID 47763) | DRSC14098 |
| -0.08 | 0.5 | 0.2 | 1.17 | Abd-B (GeneID 47763) | DRSC14337 |
| 0.06 | -0.03 | 0.2 | 0.48 | CG8531 (GeneID 36584) | DRSC07209 |
| -0.53 | -0.76 | 0.54 | 0.76 | CG5199 (GeneID 40265) | DRSC11770 |
| 0.33 | 0.57 | 0.63 | 0.06 | PIG-N (GeneID 36049) | DRSC06837 |
| -0.03 | 0.09 | -0.54 | -0.04 | icln (GeneID 36997) | DRSC07630 |
| -0.4 | 0.32 | -0.42 | 0.14 | CG9673 (GeneID 32649) | DRSC20202 |

In a second layout: 6 of the entries above.
{"predicted target":"CG7849 (GeneID 35537)","dsRNA":"DRSC04895","replicate 1, z-score of dpERK with insulin":0.17,"replicate 2, z-score of dpERK with insulin":0.54,"replicate 1, z-score of dpERK under basal conditions":-0.38,"replicate 1, z-score of ERK-YFP with insulin":-0.23}
{"predicted target":"Hmgcl (GeneID 33978)","dsRNA":"DRSC02051","replicate 1, z-score of dpERK with insulin":0.37,"replicate 2, z-score of dpERK with insulin":0,"replicate 1, z-score of dpERK under basal conditions":1.3,"replicate 1, z-score of ERK-YFP with insulin":0.75}
{"predicted target":"CG31683 + CG18858","dsRNA":"DRSC02703","replicate 1, z-score of dpERK with insulin":0.32,"replicate 2, z-score of dpERK with insulin":0.8,"replicate 1, z-score of dpERK under basal conditions":0.27,"replicate 1, z-score of ERK-YFP with insulin":0.03}
{"predicted target":"Baldspot (GeneID 39860)","dsRNA":"DRSC09671","replicate 1, z-score of dpERK with insulin":0.37,"replicate 2, z-score of dpERK with insulin":-0.17,"replicate 1, z-score of dpERK under basal conditions":0.04,"replicate 1, z-score of ERK-YFP with insulin":0.68}
{"predicted target":"Mst27D (GeneID 319019)","dsRNA":"DRSC00967","replicate 1, z-score of dpERK with insulin":1.38,"replicate 2, z-score of dpERK with insulin":-0.67,"replicate 1, z-score of dpERK under basal conditions":3.11,"replicate 1, z-score of ERK-YFP with insulin":-1.03}
{"predicted target":"CG8281 (GeneID 38880)","dsRNA":"DRSC10976","replicate 1, z-score of dpERK with insulin":0.64,"replicate 2, z-score of dpERK with insulin":0.22,"replicate 1, z-score of dpERK under basal conditions":-0.91,"replicate 1, z-score of ERK-YFP with insulin":0}
